Results as given in patent US20200317791A1.
These are yes or no findings as the source states them, for the method shown. For part of these data: Binding calls can cover weak binding; strength is not graded here.

How the values were obtained:
[1] = target: B59,Bw4_B*59:01 (human); assay: LABScreen beads
[2] = target: Cw8_C*08:01 (human); assay: LABScreen beads
[3] = target: B39,Bw6_B*39:01 (human); assay: LABScreen beads
[4] = target: B45,Bw6_B*45:01 (human); assay: LABScreen beads
[5] = target: Cw14_C*14:02 (human); assay: LABScreen beads
[6] = target: Cw9_C*03:03 (human); assay: LABScreen beads
[7] = target: B56,Bw6_B*56:01 (human); assay: LABScreen beads
[8] = target: B55,Bw6_B*55:01 (human); assay: LABScreen beads
[9] = target: B71,Bw6_B*15:10 (human); assay: LABScreen beads
[10] = target: B18,Bw6_B*18:01 (human); assay: LABScreen beads
[11] = target: B37,Bw4_B*37:01 (human); assay: LABScreen beads
[12] = target: B76,Bw6_B*15:12 (human); assay: LABScreen beads
[13] = target: B61,Bw6_B*40:06 (human); assay: LABScreen beads
[14] = target: B72,Bw6_B*15:03 (human); assay: LABScreen beads
[15] = target: B53,Bw4_B*53:01 (human); assay: LABScreen beads
[16] = target: B65,Bw6_B*14:02 (human); assay: LABScreen beads
[17] = target: B50,Bw6_B*50:01 (human); assay: LABScreen beads
[18] = target: B58,Bw4_B*58:01 (human); assay: LABScreen beads
[19] = target: B77,Bw4_B*15:13 (human); assay: LABScreen beads
[20] = target: B13,Bw4_B*13:01 (human); assay: LABScreen beads
[21] = target: B48,Bw6_B*48:01 (human); assay: LABScreen beads
[22] = target: B42,Bw6_B*42:01 (human); assay: LABScreen beads
[23] = target: B13,Bw4_B*13:02 (human); assay: LABScreen beads
[24] = target: B57,Bw4_B*57:01 (human); assay: LABScreen beads
[25] = target: B51,Bw4_B*51:01 (human); assay: LABScreen beads
[26] = target: B44,Bw4_B*44:02 (human); assay: LABScreen beads
[27] = target: B57,Bw4_B*57:03 (human); assay: LABScreen beads
[28] = target: B64,Bw6_B*14:01 (human); assay: LABScreen beads
[29] = target: B38,Bw4_B*38:01 (human); assay: LABScreen beads
[30] = target: B44,Bw4_B*44:03 (human); assay: LABScreen beads
[31] = target: B60,Bw6_B*40:01 (human); assay: LABScreen beads
[32] = target: B67,Bw6_B*67:01 (human); assay: LABScreen beads
[33] = target: B82,Bw6_B*82:01 (human); assay: LABScreen beads
[34] = target: B27,Bw6_B*27:08 (human); assay: LABScreen beads
[35] = target: B62,Bw6_B*15:01 (human); assay: LABScreen beads
[36] = target: B75,Bw6_B*15:02 (human); assay: LABScreen beads
[37] = target: B47,Bw4_B*47:01 (human); assay: LABScreen beads
[38] = target: B51,Bw4_B*51:02 (human); assay: LABScreen beads
[39] = target: B49,Bw4_B*49:01 (human); assay: LABScreen beads
[40] = target: Cw10_C*03:02 (human); assay: LABScreen beads
[41] = target: B54,Bw6_B*54:01 (human); assay: LABScreen beads
[42] = target: B41,Bw6_B*41:01 (human); assay: LABScreen beads
[43] = target: B35,Bw6_B*35:01 (human); assay: LABScreen beads
[44] = target: B61,Bw6_B*40:02 (human); assay: LABScreen beads
[45] = target: Cw16_C*16:01 (human); assay: LABScreen beads
[46] = target: B8,Bw6_B*08:01 (human); assay: LABScreen beads
[47] = target: B52,Bw4_B*52:01 (human); assay: LABScreen beads
[48] = target: B78,Bw6_B*78:01 (human); assay: LABScreen beads
[49] = target: B63,Bw4_B*15:16 (human); assay: LABScreen beads
[50] = target: B81,Bw6_B*81:01 (human); assay: LABScreen beads
[51] = target: B75,Bw6_B*15:11 (human); assay: LABScreen beads
[52] = target: Cw17_C*17:01 (human); assay: LABScreen beads, 10 µg/ml antibody
[53] = target: Cw15_C*15:02 (human); assay: LABScreen beads, 10 µg/ml antibody
[54] = target: Cw2_C*02:02 (human); assay: LABScreen beads, 10 µg/ml antibody
[55] = target: Cw4_C*04:01 (human); assay: LABScreen beads, 10 µg/ml antibody
[56] = target: Cw18_C*18:02 (human); assay: LABScreen beads, 10 µg/ml antibody
[57] = target: Cw5_C*05:01 (human); assay: LABScreen beads, 10 µg/ml antibody

B1: CW6B238 (antibody, V domains shown)
VH: QVTLKESGPVLVKPTETLTLTCTVSGFSLNNARMGVSWIRQPPGKALEWLAHMFSSDEKFYRTSLKSRLTISKDTSKSQVVLTMTNMDPVDTATYYCARISLYSSGHDTFDLWGQGTMVTVSS
VL: AIQMTQSPSSLSASVGDRVTITCRASQDIRNTLGWYQQKPGKAPNLLIYAASSLQSGVPSRFSGSGSGTDFTLTISSLQPEDFATYYCLQDYDYPLTFGGGTKVEIK
For B1, the binding [1] was “no binding (tested: 10 µg/ml)”, the binding [2] was “no binding (tested: 10 µg/ml)” and the binding [3] was “no binding (tested: 10 µg/ml)”. For the same binder, the binding [4] was “no binding (tested: 10 µg/ml)”, the binding [5] was “no binding (tested: 10 µg/ml)” and the binding [6] was “no binding (tested: 10 µg/ml)”. For the same binder, the binding [7] was “no binding (tested: 10 µg/ml)”, the binding [8] was “no binding (tested: 10 µg/ml)” and the binding [9] was “no binding (tested: 10 µg/ml)”. For the same binder, the binding [10] was “no binding (tested: 10 µg/ml)”, the binding [11] was “no binding (tested: 10 µg/ml)” and the binding [12] was “no binding (tested: 10 µg/ml)”. The binding [13] was “no binding (tested: 10 µg/ml)”, the binding [14] was “no binding (tested: 10 µg/ml)” and the binding [15] was “no binding (tested: 10 µg/ml)”. For the same binder, the binding [16] was “no binding (tested: 10 µg/ml)”, the binding [17] was “no binding (tested: 10 µg/ml)” and the binding [18] was “no binding (tested: 10 µg/ml)”. For the same binder, the binding [19] was “no binding (tested: 10 µg/ml)”, the binding [20] was “no binding (tested: 10 µg/ml)” and the binding [21] was “no binding (tested: 10 µg/ml)”. For the same binder, the binding [22] was “no binding (tested: 10 µg/ml)”, the binding [23] was “no binding (tested: 10 µg/ml)” and the binding [24] was “no binding (tested: 10 µg/ml)”. For the same binder, the binding [25] was “no binding (tested: 10 µg/ml)”, the binding [26] was “no binding (tested: 10 µg/ml)” and the binding [27] was “no binding (tested: 10 µg/ml)”. The binding [28] was “no binding (tested: 10 µg/ml)”, the binding [29] was “no binding (tested: 10 µg/ml)” and the binding [30] was “no binding (tested: 10 µg/ml)”. For the same binder, the binding [31] was “no binding (tested: 10 µg/ml)”, the binding [32] was “no binding (tested: 10 µg/ml)” and the binding [33] was “no binding (tested: 10 µg/ml)”. The binding [34] was “no binding (tested: 10 µg/ml)”, the binding [35] was “no binding (tested: 10 µg/ml)” and the binding [36] was “no binding (tested: 10 µg/ml)”. For the same binder, the binding [37] was “no binding (tested: 10 µg/ml)”, the binding [38] was “no binding (tested: 10 µg/ml)” and the binding [39] was “no binding (tested: 10 µg/ml)”. For the same binder, the binding [40] was “no binding (tested: 10 µg/ml)”, the binding [41] was “no binding (tested: 10 µg/ml)” and the binding [42] was “no binding (tested: 10 µg/ml)”. The binding [43] was “no binding (tested: 10 µg/ml)”, the binding [44] was “no binding (tested: 10 µg/ml)” and the binding [45] was “no binding (tested: 10 µg/ml)”. For the same binder, the binding [46] was “no binding (tested: 10 µg/ml)”, the binding [47] was “no binding (tested: 10 µg/ml)” and the binding [48] was “no binding (tested: 10 µg/ml)”. The binding [49] was “no binding (tested: 10 µg/ml)”, the binding [50] was “no binding (tested: 10 µg/ml)” and the binding [51] was “no binding (tested: 10 µg/ml)”. For the same binder, the binding [52] was “binds”, the binding [53] was “binds” and the binding [54] was “binds”. For the same binder, the binding [55] was “binds”, the binding [56] was “binds” and the binding [57] was “binds”.
